Among the data in PMC7819943, “Rice protein-binding microarrays: a tool to detect cis-acting elements near promoter regions in rice” are binding signal values, retold here.

The list shows a part of the results.

The test has as its target T1, OsSMF1 (Oryza sativa, UniProt Q6ZLB0 1-436).
T1 sequence: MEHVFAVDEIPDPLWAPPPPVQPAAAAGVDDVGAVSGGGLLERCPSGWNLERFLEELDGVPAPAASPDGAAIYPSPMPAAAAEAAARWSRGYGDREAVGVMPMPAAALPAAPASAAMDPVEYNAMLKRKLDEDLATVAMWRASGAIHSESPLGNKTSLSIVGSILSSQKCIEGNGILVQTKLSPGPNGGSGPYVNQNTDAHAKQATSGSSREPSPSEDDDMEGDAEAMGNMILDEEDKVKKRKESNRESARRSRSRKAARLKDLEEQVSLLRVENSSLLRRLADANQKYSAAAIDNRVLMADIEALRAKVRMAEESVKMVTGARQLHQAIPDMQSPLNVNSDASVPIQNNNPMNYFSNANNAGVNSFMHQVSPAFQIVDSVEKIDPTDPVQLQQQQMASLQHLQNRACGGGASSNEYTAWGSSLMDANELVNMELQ
Briefly: protein-binding microarray (RPBM); PBS, 2% BSA, 51.3 ng/ul salmon testes DNA, 50 uM zinc acetate, 200 nM TF, 25 C, 1 h; high values mean tight binding. To be noted: protein: recombinant; tags: N-terminal polyhistidine and DsRed monomer fusion (pET32a); chain copies: 2; label: CyDye5-dUTP incorporated in the synthesized complementary strand; 3' TTTTT single-stranded linker to array surface; dsDNA, one strand shown. Summed up: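 For the binding signal, per-feature fluorescence intensity was read in arbitrary units on an Axon 4000B scanner. Before scanning, a 2% BSA-blocked custom Agilent array made double-stranded with Cy5-dUTP was washed after 1 h at 25 °C with 200 nM protein and 50 µM zinc acetate. The proteins were Ni–NTA-purified transcription factors with N-terminal polyhistidine and DsRed fusions, expressed in E. coli BL21-CodonPlus.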
On to “TTCCTCGGATTCTTGGCGCGCATGACGTCGTAGACCCGGACGGAGTCACCTAGTGCAG”, for which the binding signal is 5300 fluorescence intensity (a.u.). Under “CCTCACGAGCTTATCTAAGCCTGTCGCAATCTTGCTTCGGCGGAGTCACCTAGTGCAG” stands 3510 fluorescence intensity (a.u.); under “CAACAACACCAGCTCAGCCCATCGGAACCGAAACGCAGCGCGGAGTCACCTAGTGCAG”, 3270 fluorescence intensity (a.u.); under “TCCCATGCCGCGCTCGTCGATCCCCAAATCTCGCCGCCGGCGGAGTCACCTAGTGCAG”, 4020 fluorescence intensity (a.u.). Next, “AAAACAAATATAGAGGAGACAGCTCATTTTATTTCCTTGACGGAGTCACCTAGTGCAG”: 3340 fluorescence intensity (a.u.); “TGGCGATGGCGAACGCCTTGAACGGCATCGCGAACGCCGCCGGAGTCACCTAGTGCAG”: 3150 fluorescence intensity (a.u.). Under “TCGCCATGGACGCCCATCCACTTGTCACGCACCATACACACGGAGTCACCTAGTGCAG” stands 3960 fluorescence intensity (a.u.). Regarding “CACATGCCTAGCCGCCGCCGGTCGCCTCACTTCCCTAGCCCGGAGTCACCTAGTGCAG”, the binding signal is 31800 fluorescence intensity (a.u.). In the case of “TTGCATTGCCACGGGAACGTGTGGTGGTGGTGGATCGGTACGGAGTCACCTAGTGCAG”, the binding signal is 3540 fluorescence intensity (a.u.).

Consider “ATTGCTAACAGATAGTGAATGTCACGTGTTACTTCGTTAGCGGAGTCACCTAGTGCAG”, for which the binding signal is 3230 fluorescence intensity (a.u.). Next, “ATTGTTCGATGTGCTCCAACTCAGCAAAGTGGTGCATGCACGGAGTCACCTAGTGCAG”: 6480 fluorescence intensity (a.u.). Next, “CCTCTCGTGGCATCGCATCGCATCGTGTCCTCTGCGACTGCGGAGTCACCTAGTGCAG”: 3630 fluorescence intensity (a.u.); “GGACCCCACACCGCCTCGTCTCGTGAACCGGCGCTACTACCGGAGTCACCTAGTGCAG”: 3190 fluorescence intensity (a.u.). Under “CCATCACCTCGTCGTCCCCGTCACCGCGCCTCTCCCGCTGCGGAGTCACCTAGTGCAG” stands 3780 fluorescence intensity (a.u.); under “CAGACGATCTCCCGCTGACGCGTGGGCCCCACCTCTCCTCCGGAGTCACCTAGTGCAG”, 6480 fluorescence intensity (a.u.). Turning to “GGTCTCCAAGTTGCGCAATATTTAAACCAGCAGGCGTGGTCGGAGTCACCTAGTGCAG”, the binding signal is 31500 fluorescence intensity (a.u.). Next, “TCTTTTGGTAAACATCTATATTTCAAGTGCAACAAATTAACGGAGTCACCTAGTGCAG”: 32300 fluorescence intensity (a.u.); “TTTTGCGCCACAATCCACGTTGGTTGTTGAGGTTTATATACGGAGTCACCTAGTGCAG”: 3190 fluorescence intensity (a.u.); “ATACTTCCATTTGTGCCATACATTTTGTCATTTCGACCTGCGGAGTCACCTAGTGCAG”: 3330 fluorescence intensity (a.u.).

Consider “TTCCCCAAACCCCAGAGTTTGAGTATGCGTCAAATGGTGGCGGAGTCACCTAGTGCAG”, for which the binding signal is 4090 fluorescence intensity (a.u.).

Consider “GCTCAAATACAGGAAAGTCAGTCCATCCCGCACCAGGCCCCGGAGTCACCTAGTGCAG”, for which the binding signal was 3350 fluorescence intensity (a.u.). As to “CTTCGATCACCAAATCGCCACATCAATTACAACTTATAGTCGGAGTCACCTAGTGCAG”, the binding signal is 3180 fluorescence intensity (a.u.). Next, “CGTAAAAGGACAGGTTACAAACAAGTGGTGGCAATCCTCGCGGAGTCACCTAGTGCAG”: 3320 fluorescence intensity (a.u.). In the case of “CACCATCCTGAACTGAATTGCCTGCACCTAGCCACATCATCGGAGTCACCTAGTGCAG”, the binding signal was 4710 fluorescence intensity (a.u.).

Consider “CGGCCGTTGGGCAGCGGCGGTAGGTAGAACCCTGACGACGCGGAGTCACCTAGTGCAG”, for which the binding signal was 3990 fluorescence intensity (a.u.). For “TTCTTCCTCTCCAAGAAGACAAGTCACCCTTCCCCACGCCCGGAGTCACCTAGTGCAG”, the binding signal is 24700 fluorescence intensity (a.u.). Next, “ATCAGCTGACCATTGTGGCTACCGTCTTCCCGCAGCTCATCGGAGTCACCTAGTGCAG”: 3610 fluorescence intensity (a.u.).

With “CTCGAGCTTGACTCTGGCGGCAGTGGCGGGCGGCGTGGCCCGGAGTCACCTAGTGCAG”, the binding signal is 3220 fluorescence intensity (a.u.). Under “CCACGTGTCAGCATTGCCACATCAGCTTCCTCTCTCTTTTCGGAGTCACCTAGTGCAG” stands 24100 fluorescence intensity (a.u.). Next, “TTGCTGCCACGTCGGGCCACCGGCCTATTGAGTCACCGAACGGAGTCACCTAGTGCAG”: 14900 fluorescence intensity (a.u.). Under “GGGGAGGAGGACGAGTAACAGACGTGGTGGCCGCCGAGGCCGGAGTCACCTAGTGCAG” stands 3490 fluorescence intensity (a.u.); under “GCTGCTTCCCTTCCTCGCCTACGCCGCCGTCCATCTCGCCCGGAGTCACCTAGTGCAG”, 3680 fluorescence intensity (a.u.); under “ATAATTTGAGCAGGTCAATCTAAACACGCTGTCAAGGACTCGGAGTCACCTAGTGCAG”, 3530 fluorescence intensity (a.u.). Take “GTAGAATTATAAAATATATTGTGTACACAATAGGTTTATGCGGAGTCACCTAGTGCAG”: the binding signal is 3330 fluorescence intensity (a.u.). Under “GGCCCCTCTCCGTCGGCGGCGTCAGCAGTGGGCTGCAGCACGGAGTCACCTAGTGCAG” stands 20300 fluorescence intensity (a.u.); under “GTGGTGTGAAGGAATAAGTCCATTTTGCCTCCCTCATCTCCGGAGTCACCTAGTGCAG”, 11200 fluorescence intensity (a.u.). Next, “TAGCCACATTATTTTGCTGAATGATACTACAACTGGCACCCGGAGTCACCTAGTGCAG”: 5070 fluorescence intensity (a.u.); “CTTCAAGAGGAAGTATATTATGCTTGTCATGCTCGTTCAACGGAGTCACCTAGTGCAG”: 3140 fluorescence intensity (a.u.).

For “CCCGTCGTTCGGATCCGCCAACACCGCACCGCCGCAATCGCGGAGTCACCTAGTGCAG”, the binding signal is 22600 fluorescence intensity (a.u.). In the case of “ACCCGGGGCGAGAGCAGAAGAAACGGATCTCTGTCTTTCTCGGAGTCACCTAGTGCAG”, the binding signal was 32800 fluorescence intensity (a.u.). Under “TCAATTTGCATTCCGTGTCATGTAATTGCCTGATGTGAGTCGGAGTCACCTAGTGCAG” stands 5730 fluorescence intensity (a.u.); under “CAGCGTCACGTGGCACCCGCACCGCCCGAAAACACCGTTGCGGAGTCACCTAGTGCAG”, 5530 fluorescence intensity (a.u.). Next, “CTAGCAGAAATGGTGATCGGGAGCAAATGTGGGTTGATGACGGAGTCACCTAGTGCAG”: 3680 fluorescence intensity (a.u.); “AACAGAGGCTAATAGCTCATCCCTGCATCATCATCATCATCGGAGTCACCTAGTGCAG”: 4420 fluorescence intensity (a.u.); “GACTAGATTAATAGTAAACCACCTTAATAGTATGTCTACACGGAGTCACCTAGTGCAG”: 4450 fluorescence intensity (a.u.). Turning to “TTGTAAGCTCAGCCTAGATAGAGTGAAGATATTTTATTGGCGGAGTCACCTAGTGCAG”, the binding signal was 49700 fluorescence intensity (a.u.). Next, “TGAGTTCTACTAACACACTACGCAGGGCTGCAAGTGTTAGCGGAGTCACCTAGTGCAG”: 3350 fluorescence intensity (a.u.); “ACATCCGAGAGACTAGGCCGACAAATCACCACCGACACGTCGGAGTCACCTAGTGCAG”: 5890 fluorescence intensity (a.u.). Next, “TGCTACAAACCATGTGCAGGCATGCATGGATGACAGGCGGCGGAGTCACCTAGTGCAG”: 3250 fluorescence intensity (a.u.). With “ATCCTTGCTTTGCTGCTGCGTTGTTCATGATTCCCACCAACGGAGTCACCTAGTGCAG”, the binding signal is 3430 fluorescence intensity (a.u.). On to “GAGGGAGGGAGGTGGAAGCGGAGGCGAGTGGGAGGGTGGGCGGAGTCACCTAGTGCAG”, for which the binding signal is 6080 fluorescence intensity (a.u.). Next, “ATCCATGCATGCATCCTCCACGTAGCTAGCCCTATACTCTCGGAGTCACCTAGTGCAG”: 3890 fluorescence intensity (a.u.); “ATGGCGCGCCGCCACGTCACCCCGACTCGCCACGTCAGCACGGAGTCACCTAGTGCAG”: 65500 fluorescence intensity (a.u.); “GTTGCAAACCTGACCCCGGCATCGCCAGCCTGACCTGCTGCGGAGTCACCTAGTGCAG”: 3240 fluorescence intensity (a.u.).
